Some of the results follow.
Columns and labels:
Experiment in all cases: log2 fold change, soluble protein after heating vs DMSO (PISA); higher = thermal stabilisation; K562 lysate, 10 uM; active = over 0.2 and 3.5 SD of the protein, either way, in both replicates (recomputed)
nilotinib = compound: Cc1cn(-c2cc(NC(=O)c3ccc(C)c(Nc4nccc(-c5cccnc5)n4)c3)cc(C(F)(F)F)c2)cn1 [nilotinib]
Outline: (§1)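 Dounce homogenisation of K562 pellets in PBS pH 7.4 with 1 mM MgCl2 produced a crude extract, used at 1 mg/mL protein. Exposure to 10 μM compound lasted 30 min, and aliquots were then heated for 3 min across 48°C-58°C, pooled and brought to 0.5% NP-40 at 4°C. The supernatant after 21,000xg for 90 min was quantified by TMTpro 16plex LC-MS/MS with channel sums equalised. Duplicate values are given as log-two fold change in thermal stability relative to solvent controls.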

Amino acid sequences for entries named in this document (tags omitted). A change or cut given only in a name is not applied to a line headed by its entry.
UniProt O75554: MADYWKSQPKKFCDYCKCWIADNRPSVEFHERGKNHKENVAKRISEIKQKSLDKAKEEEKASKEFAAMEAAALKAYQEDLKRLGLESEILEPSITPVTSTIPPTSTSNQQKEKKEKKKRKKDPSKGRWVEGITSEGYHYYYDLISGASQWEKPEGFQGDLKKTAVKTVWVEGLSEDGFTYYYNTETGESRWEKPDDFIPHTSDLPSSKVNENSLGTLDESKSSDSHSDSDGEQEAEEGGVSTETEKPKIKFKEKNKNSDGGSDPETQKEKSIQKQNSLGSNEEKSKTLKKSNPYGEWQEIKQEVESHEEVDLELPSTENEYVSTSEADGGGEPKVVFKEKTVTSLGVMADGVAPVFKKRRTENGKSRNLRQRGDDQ
UniProt Q96MX6, whole entry, looked up: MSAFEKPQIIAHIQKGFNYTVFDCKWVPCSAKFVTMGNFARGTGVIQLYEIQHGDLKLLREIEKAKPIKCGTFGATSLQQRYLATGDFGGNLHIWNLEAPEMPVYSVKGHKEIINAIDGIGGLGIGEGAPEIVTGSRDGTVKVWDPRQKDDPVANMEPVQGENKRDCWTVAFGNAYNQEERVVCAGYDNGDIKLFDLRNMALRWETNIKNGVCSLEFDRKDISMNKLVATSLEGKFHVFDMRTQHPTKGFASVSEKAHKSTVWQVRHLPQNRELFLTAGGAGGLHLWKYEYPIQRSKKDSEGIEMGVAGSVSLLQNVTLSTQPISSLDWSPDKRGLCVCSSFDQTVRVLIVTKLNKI
UniProt Q96HA8: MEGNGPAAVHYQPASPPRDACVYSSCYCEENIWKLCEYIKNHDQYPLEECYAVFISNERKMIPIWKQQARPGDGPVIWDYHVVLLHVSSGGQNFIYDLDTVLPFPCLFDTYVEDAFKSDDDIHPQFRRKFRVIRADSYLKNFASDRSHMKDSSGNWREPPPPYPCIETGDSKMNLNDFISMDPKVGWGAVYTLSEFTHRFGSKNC
UniProt Q96JC1: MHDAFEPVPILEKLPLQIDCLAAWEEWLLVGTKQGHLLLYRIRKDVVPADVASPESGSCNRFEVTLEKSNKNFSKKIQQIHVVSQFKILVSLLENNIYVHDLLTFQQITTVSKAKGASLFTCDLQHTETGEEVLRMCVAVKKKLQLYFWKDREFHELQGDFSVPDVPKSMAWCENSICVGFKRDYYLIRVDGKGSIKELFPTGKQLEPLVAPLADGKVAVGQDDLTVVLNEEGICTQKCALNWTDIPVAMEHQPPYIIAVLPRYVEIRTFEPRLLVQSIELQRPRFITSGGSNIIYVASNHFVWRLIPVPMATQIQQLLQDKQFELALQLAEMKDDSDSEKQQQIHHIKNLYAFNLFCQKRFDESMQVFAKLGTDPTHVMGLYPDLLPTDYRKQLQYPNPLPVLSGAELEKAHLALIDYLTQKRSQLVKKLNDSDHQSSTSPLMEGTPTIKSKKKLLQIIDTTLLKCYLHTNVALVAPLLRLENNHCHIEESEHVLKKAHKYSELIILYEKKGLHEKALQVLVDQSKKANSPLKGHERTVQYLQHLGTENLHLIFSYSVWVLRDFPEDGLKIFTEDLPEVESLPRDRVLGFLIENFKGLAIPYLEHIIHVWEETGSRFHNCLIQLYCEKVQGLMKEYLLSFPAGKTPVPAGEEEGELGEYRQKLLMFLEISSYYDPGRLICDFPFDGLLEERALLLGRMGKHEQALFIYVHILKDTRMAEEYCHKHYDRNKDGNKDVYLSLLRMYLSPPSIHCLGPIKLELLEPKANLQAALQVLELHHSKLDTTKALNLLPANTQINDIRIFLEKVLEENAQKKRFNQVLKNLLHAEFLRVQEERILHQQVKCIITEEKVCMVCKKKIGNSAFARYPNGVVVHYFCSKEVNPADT
UniProt Q9NNW5: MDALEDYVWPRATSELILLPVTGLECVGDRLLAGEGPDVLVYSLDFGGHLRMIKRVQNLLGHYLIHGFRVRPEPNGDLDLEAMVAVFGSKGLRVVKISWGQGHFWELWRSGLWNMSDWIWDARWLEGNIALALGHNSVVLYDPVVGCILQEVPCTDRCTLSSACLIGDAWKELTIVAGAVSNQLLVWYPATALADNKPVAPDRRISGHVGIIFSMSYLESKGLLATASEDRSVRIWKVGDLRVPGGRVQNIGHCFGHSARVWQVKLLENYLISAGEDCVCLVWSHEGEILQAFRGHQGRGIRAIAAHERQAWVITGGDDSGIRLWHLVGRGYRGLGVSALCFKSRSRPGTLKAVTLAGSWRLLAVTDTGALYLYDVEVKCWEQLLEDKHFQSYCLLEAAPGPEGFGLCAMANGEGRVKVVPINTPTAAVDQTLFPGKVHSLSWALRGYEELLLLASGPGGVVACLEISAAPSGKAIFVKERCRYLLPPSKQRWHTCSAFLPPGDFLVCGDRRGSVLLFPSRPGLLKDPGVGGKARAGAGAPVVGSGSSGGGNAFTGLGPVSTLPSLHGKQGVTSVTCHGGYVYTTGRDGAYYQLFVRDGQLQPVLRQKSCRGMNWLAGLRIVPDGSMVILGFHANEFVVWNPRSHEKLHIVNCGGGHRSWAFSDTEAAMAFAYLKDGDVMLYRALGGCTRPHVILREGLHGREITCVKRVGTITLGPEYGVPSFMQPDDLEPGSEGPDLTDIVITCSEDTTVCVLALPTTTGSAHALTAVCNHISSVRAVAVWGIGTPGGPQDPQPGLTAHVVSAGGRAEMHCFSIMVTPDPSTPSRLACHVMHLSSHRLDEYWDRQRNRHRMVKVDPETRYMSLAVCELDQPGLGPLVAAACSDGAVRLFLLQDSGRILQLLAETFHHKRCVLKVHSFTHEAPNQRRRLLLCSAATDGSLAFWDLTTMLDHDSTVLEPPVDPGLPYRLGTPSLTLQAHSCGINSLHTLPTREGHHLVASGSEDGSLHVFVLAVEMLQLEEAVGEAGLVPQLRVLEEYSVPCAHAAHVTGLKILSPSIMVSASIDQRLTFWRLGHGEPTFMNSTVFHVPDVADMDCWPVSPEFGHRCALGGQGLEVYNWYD
UniProt P30291: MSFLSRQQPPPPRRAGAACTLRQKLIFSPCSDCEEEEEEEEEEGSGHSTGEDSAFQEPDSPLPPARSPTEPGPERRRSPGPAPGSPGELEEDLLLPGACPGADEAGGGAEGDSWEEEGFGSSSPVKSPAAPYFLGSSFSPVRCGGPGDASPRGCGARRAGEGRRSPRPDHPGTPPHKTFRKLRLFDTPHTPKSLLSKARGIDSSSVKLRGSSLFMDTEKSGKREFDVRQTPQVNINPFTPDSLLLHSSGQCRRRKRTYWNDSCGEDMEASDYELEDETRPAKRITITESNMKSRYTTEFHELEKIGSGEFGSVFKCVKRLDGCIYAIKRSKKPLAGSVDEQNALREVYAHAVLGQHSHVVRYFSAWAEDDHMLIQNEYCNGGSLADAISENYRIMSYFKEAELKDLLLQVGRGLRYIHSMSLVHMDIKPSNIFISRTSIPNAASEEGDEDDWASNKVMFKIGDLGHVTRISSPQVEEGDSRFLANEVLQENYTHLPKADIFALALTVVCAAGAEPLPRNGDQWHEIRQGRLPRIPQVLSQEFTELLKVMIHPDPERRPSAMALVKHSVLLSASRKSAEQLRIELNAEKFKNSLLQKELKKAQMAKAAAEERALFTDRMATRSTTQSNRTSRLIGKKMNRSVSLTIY
UniProt Q9H6R7: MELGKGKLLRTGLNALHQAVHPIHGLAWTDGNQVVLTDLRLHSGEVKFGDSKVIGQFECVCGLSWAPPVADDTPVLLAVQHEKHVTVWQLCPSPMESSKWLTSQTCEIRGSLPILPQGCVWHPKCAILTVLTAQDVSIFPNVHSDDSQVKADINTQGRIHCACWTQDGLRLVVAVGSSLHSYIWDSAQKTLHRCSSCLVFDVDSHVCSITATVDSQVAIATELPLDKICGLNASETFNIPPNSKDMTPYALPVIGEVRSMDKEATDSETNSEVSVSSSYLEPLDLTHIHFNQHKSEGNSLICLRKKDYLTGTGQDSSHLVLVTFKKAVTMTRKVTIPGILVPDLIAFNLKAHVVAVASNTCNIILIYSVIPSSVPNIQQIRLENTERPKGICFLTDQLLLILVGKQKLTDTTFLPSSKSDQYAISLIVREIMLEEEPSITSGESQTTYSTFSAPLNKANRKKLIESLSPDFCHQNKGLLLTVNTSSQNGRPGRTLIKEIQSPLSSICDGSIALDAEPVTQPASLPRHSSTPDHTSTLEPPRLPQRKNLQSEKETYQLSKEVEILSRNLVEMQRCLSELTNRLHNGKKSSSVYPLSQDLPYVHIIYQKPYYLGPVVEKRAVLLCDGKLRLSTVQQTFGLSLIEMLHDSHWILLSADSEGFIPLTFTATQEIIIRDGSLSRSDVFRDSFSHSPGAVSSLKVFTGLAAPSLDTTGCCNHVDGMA
UniProt Q8N3P4: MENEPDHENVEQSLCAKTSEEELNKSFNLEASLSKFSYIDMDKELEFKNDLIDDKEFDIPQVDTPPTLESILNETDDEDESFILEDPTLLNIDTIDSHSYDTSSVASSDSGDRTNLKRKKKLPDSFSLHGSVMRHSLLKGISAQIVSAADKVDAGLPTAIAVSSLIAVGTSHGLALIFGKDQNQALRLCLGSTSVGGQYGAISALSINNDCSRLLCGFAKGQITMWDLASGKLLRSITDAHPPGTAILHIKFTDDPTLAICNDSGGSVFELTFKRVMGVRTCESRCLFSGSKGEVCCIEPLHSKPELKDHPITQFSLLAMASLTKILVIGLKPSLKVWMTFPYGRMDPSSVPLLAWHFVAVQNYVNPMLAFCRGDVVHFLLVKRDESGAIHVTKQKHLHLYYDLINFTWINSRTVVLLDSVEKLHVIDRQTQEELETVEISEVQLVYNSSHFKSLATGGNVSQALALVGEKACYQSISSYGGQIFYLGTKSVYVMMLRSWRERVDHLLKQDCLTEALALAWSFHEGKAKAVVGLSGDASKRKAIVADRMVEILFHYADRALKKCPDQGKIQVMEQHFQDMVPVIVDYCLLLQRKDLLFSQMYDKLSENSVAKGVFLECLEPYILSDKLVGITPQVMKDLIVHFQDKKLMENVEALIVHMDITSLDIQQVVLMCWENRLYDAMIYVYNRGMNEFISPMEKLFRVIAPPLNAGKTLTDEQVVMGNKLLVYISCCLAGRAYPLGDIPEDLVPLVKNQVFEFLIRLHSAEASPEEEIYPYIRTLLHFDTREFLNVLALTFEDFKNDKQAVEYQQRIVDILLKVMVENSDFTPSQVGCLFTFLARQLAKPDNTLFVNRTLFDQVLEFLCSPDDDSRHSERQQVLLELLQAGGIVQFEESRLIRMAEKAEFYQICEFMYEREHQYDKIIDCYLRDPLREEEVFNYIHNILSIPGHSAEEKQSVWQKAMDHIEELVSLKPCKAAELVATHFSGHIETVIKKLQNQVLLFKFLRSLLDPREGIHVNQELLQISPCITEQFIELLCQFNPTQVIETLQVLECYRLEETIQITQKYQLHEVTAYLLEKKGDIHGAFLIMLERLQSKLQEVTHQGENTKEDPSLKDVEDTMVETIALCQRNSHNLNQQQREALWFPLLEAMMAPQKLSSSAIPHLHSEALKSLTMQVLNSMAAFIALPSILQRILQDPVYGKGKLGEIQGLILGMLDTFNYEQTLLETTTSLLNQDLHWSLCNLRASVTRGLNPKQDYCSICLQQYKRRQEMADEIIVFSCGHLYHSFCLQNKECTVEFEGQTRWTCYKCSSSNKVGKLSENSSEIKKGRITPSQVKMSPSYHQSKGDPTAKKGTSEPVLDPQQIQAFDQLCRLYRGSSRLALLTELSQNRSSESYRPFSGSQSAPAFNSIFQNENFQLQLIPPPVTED
UniProt Q8N1B4: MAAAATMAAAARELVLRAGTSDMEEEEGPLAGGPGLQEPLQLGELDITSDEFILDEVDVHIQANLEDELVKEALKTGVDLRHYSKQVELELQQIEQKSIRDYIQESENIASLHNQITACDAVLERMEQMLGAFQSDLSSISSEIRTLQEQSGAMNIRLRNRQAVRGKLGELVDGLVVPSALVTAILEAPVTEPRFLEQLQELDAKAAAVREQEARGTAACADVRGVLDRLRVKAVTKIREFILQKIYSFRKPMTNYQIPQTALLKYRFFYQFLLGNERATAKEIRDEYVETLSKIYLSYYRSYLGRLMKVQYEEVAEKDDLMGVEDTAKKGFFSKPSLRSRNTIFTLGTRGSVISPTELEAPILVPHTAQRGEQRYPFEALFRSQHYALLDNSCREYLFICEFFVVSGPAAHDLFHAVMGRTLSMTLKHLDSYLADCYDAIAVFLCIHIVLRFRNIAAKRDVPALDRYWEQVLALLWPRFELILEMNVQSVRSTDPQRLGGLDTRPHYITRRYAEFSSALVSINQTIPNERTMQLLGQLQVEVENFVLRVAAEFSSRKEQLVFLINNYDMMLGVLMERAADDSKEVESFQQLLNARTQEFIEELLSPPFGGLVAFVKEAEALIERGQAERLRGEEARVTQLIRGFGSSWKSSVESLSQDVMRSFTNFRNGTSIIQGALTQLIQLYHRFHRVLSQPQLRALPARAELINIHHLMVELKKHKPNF

[1] = compound: Cc1nc(Nc2n[nH]c3c2CN(C(=O)N[C@H](CN(C)C)c2ccccc2)C3(C)C)c2sccc2n1
Outline: as §1

dasatinib = compound: Cc1nc(Nc2ncc(C(=O)Nc3c(C)cccc3Cl)s2)cc(N2CCN(CCO)CC2)n1 [dasatinib]
Outline: as §1

[2] = compound: Cc1ncc(-c2ccnc(Nc3ccc(S(C)(=O)=O)cc3)n2)n1C(C)C
Outline: as §1

[3] = compound: Cn1cc(-c2ccc3c(c2)CCN3C(=O)Cc2cccc(C(F)(F)F)c2)c2c(N)ncnc21
Outline: as §1

quisinostat = compound: Cn1cc(CNCC2CCN(c3ncc(C(=O)NO)cn3)CC2)c2ccccc21 [quisinostat]
Outline: as §1

tipifarnib = compound: Cn1cncc1[C@@](N)(c1ccc(Cl)cc1)c1ccc2c(c1)c(-c1cccc(Cl)c1)cc(=O)n2C [tipifarnib]
Outline: as §1

[4] = compound: NC(=O)Nc1cc(-c2cccc(F)c2)sc1C(=O)N[C@H]1CCCNC1
Outline: as §1

[5] = compound: NC(=O)c1cnc(N[C@@H]2CCCC[C@@H]2N)nc1Nc1cccc(-n2nccn2)c1
Outline: as §1

[6] = compound: NC1(c2ccc(-c3nc4ccn5c(=O)[nH]nc5c4cc3-c3ccccc3)cc2)CCC1
Outline: as §1

[7] = compound: NCC(=O)Nc1ccc(-n2nc(C(F)(F)F)cc2-c2ccc3c(ccc4ccccc43)c2)cc1
Outline: as §1

vorinostat = compound: O=C(CCCCCCC(=O)Nc1ccccc1)NO [vorinostat]
Outline: as §1

silmitasertib = compound: O=C(O)c1ccc2c(c1)nc(Nc1cccc(Cl)c1)c1ccncc12 [silmitasertib]
Outline: as §1

[8] = compound: O=C1NC(=O)C(c2cnc3ccccn23)=C1c1cn2c3c(cc(F)cc13)CN(C(=O)N1CCCCC1)CC2
Outline: as §1

entospletinib = compound: c1cn2cc(-c3ccc4cn[nH]c4c3)nc(Nc3ccc(N4CCOCC4)cc3)c2n1 [entospletinib]
Outline: as §1

Measured: log2 fold change

WBP4 (UniProt O75554)
inactive: nilotinib 0.009 | [1] -0.013 | dasatinib 0.058 | [2] 0.027 | [3] 0.058 | quisinostat -0.037 | tipifarnib 0 | [4] 0.016 | [5] -0.04 | [6] 0.025 | [7] 0.013 | vorinostat 0.151 | silmitasertib -0.002 | [8] -0.035 | entospletinib 0.041

WDR92 (UniProt Q96MX6)
inactive: nilotinib 0 | [1] -0.009 | dasatinib 0.007 | [2] -0.07 | [3] -0.056 | quisinostat -0.015 | tipifarnib -0.008 | [4] 0.032 | [5] -0.042 | [6] -0.01 | [7] -0.046 | vorinostat -0.065 | silmitasertib 0.053 | [8] -0.036 | entospletinib 0.004

WDYHV1 (UniProt Q96HA8)
inactive: nilotinib 0.074 | [1] 0.076 | dasatinib 0.031 | [2] 0.081 | [3] 0.029 | quisinostat 0.154 | tipifarnib -0.105 | [4] 0.063 | [5] 0.059 | [6] -0.053 | [7] 0.181 | vorinostat 0.226 | silmitasertib -0.032 | [8] -0.077 | entospletinib 0.107

VPS26A (UniProt O75436)
inactive: nilotinib 0.011 | [1] -0.008 | dasatinib -0.009 | [2] -0.017 | [3] -0.023 | quisinostat -0.097 | tipifarnib 0.002 | [4] -0.001 | [5] -0.014 | [6] -0.023 | [7] 0.007 | vorinostat 0.044 | silmitasertib 0.001 | [8] -0.013 | entospletinib 0.029

WBP11 (UniProt Q9Y2W2)
inactive: nilotinib -0.008 | [1] -0.012 | dasatinib 0.048 | [2] 0.024 | [3] 0.002 | quisinostat -0.019 | tipifarnib -0.008 | [4] 0.012 | [5] -0.014 | [6] 0.005 | [7] -0.015 | vorinostat 0.143 | silmitasertib -0.037 | [8] -0.012 | entospletinib -0.012

WDR47 (UniProt O94967)
inactive: nilotinib 0.043 | [1] -0.075 | dasatinib 0.072 | [2] -0.013 | [3] 0.039 | quisinostat -0.039 | tipifarnib -0.001 | [4] 0.008 | [5] -0.033 | [6] -0.01 | [7] -0.002 | vorinostat 0.04 | silmitasertib -0.021 | [8] -0.041 | entospletinib -0.036

VTI1A (UniProt Q96AJ9)
inactive: nilotinib -0.007 | [1] -0.028 | dasatinib -0.012 | [2] 0.017 | [3] 0.02 | quisinostat -0.007 | tipifarnib 0.049 | [4] 0.037 | [5] -0.049 | [6] -0.006 | [7] -0.064 | vorinostat 0.141 | silmitasertib -0.012 | [8] -0.044 | entospletinib -0.026

WDR4 (UniProt P57081)
inactive: nilotinib 0 | [1] -0.008 | dasatinib -0.002 | [2] 0 | [3] 0.012 | quisinostat -0.084 | tipifarnib 0.02 | [4] 0.018 | [5] -0.051 | [6] 0.011 | [7] -0.033 | vorinostat -0.136 | silmitasertib 0.005 | [8] -0.019 | entospletinib -0.011

VPS39 (UniProt Q96JC1)
inactive: nilotinib 0.03 | [1] -0.008 | dasatinib -0.044 | [2] 0.024 | [3] -0.003 | quisinostat -0.046 | tipifarnib 0.002 | [4] 0.005 | [5] -0.008 | [6] -0.003 | [7] 0.009 | vorinostat -0.194 | silmitasertib 0.01 | [8] -0.005 | entospletinib 0.013

WDR6 (UniProt Q9NNW5)
active: vorinostat -0.321
inactive: nilotinib -0.017 | [1] 0.002 | dasatinib -0.018 | [2] -0.003 | [3] 0.026 | quisinostat -0.075 | tipifarnib 0.036 | [4] 0.033 | [5] 0.006 | [6] -0.032 | [7] 0.012 | silmitasertib 0.01 | [8] -0.025 | entospletinib 0

WEE1 (UniProt P30291)
inactive: nilotinib -0.002 | [1] 0.001 | [2] -0.033 | [3] -0.002 | quisinostat -0.069 | tipifarnib -0.007 | [4] 0.223 | [5] -0.106 | [6] -0.044 | [7] 0.023 | silmitasertib 0.107 | [8] -0.03 | entospletinib -0.007
active: dasatinib 0.397 | vorinostat -0.52

WNK1 isoform 7 (UniProt Q9H4A3)
inactive: nilotinib 0.019 | [1] -0.011 | dasatinib 0.084 | [2] 0.004 | [3] 0.061 | quisinostat -0.031 | tipifarnib 0.006 | [4] 0.009 | [5] 0.007 | [6] -0.005 | [7] 0.021 | vorinostat -0.058 | silmitasertib 0.025 | [8] -0.009 | entospletinib -0.015

WWC2 isoform 6 (UniProt Q6AWC2)
inactive: nilotinib 0.046 | [1] -0.032 | dasatinib 0.05 | [2] 0.044 | [3] 0.037 | quisinostat -0.023 | tipifarnib -0.037 | [4] -0.003 | [5] 0.057 | [6] 0.022 | [7] -0.027 | vorinostat -0.077 | silmitasertib -0.001 | [8] -0.018 | entospletinib -0.052

WDR70 (UniProt Q9NW82)
inactive: nilotinib 0.005 | [1] -0.008 | dasatinib 0.004 | [2] -0.027 | [3] 0.027 | quisinostat 0.013 | tipifarnib -0.007 | [4] -0.045 | [5] -0.03 | [6] 0.034 | [7] 0.027 | vorinostat -0.014 | silmitasertib 0.054 | [8] -0.029 | entospletinib 0.015

Two entries drawn at random from the list so far:
VTI1A (UniProt Q96AJ9)
inactive: nilotinib -0.007 | [1] -0.028 | dasatinib -0.012 | [2] 0.017 | [3] 0.02 | quisinostat -0.007 | tipifarnib 0.049 | [4] 0.037 | [5] -0.049 | [6] -0.006 | [7] -0.064 | vorinostat 0.141 | silmitasertib -0.012 | [8] -0.044 | entospletinib -0.026

WDR47 (UniProt O94967)
inactive: nilotinib 0.043 | [1] -0.075 | dasatinib 0.072 | [2] -0.013 | [3] 0.039 | quisinostat -0.039 | tipifarnib -0.001 | [4] 0.008 | [5] -0.033 | [6] -0.01 | [7] -0.002 | vorinostat 0.04 | silmitasertib -0.021 | [8] -0.041 | entospletinib -0.036

(list continues)

WDR7 (UniProt Q9Y4E6)
active: vorinostat -0.236
inactive: nilotinib 0.001 | [1] -0.018 | dasatinib -0.088 | [2] -0.011 | [3] 0.003 | quisinostat -0.016 | tipifarnib -0.032 | [4] 0.014 | [5] 0.007 | [6] -0.03 | [7] -0.01 | silmitasertib 0.032 | [8] 0.01 | entospletinib -0.017

WDCP (UniProt Q9H6R7)
inactive: nilotinib -0.01 | [1] 0.001 | dasatinib -0.035 | [2] 0.006 | [3] -0.018 | quisinostat -0.107 | tipifarnib 0.009 | [4] 0.014 | [5] -0.069 | [6] 0.007 | [7] -0.066 | silmitasertib 0.022 | [8] 0.02 | entospletinib -0.036
active: vorinostat -0.233

VPS8 (UniProt Q8N3P4)
inactive: nilotinib 0.024 | [1] -0.019 | dasatinib -0.036 | [2] 0.026 | [3] 0.073 | quisinostat -0.03 | tipifarnib 0.006 | [4] 0.065 | [5] 0.027 | [6] -0.062 | [7] 0.03 | vorinostat -0.223 | silmitasertib 0.033 | [8] -0.02 | entospletinib -0.005

VPS54 (UniProt Q9P1Q0)
inactive: nilotinib 0.013 | [1] -0.041 | dasatinib -0.112 | [2] 0.205 | [3] 0.146 | tipifarnib -0.111 | [4] 0.065 | [5] 0.089 | [6] -0.121 | [7] 0.112 | vorinostat -0.055 | silmitasertib -0.001 | [8] 0.002 | entospletinib 0.007
active: quisinostat -0.409

VPS52 (UniProt Q8N1B4)
inactive: nilotinib 0.052 | [1] -0.054 | dasatinib -0.033 | [2] 0.005 | [3] 0.062 | quisinostat 0.034 | tipifarnib -0.03 | [4] 0.026 | [5] 0.017 | [6] 0.037 | [7] -0.054 | vorinostat -0.117 | silmitasertib 0.07 | [8] 0.036 | entospletinib -0.002

VPS28 (UniProt Q9UK41)
active: vorinostat -0.37
inactive: nilotinib -0.031 | [1] 0.034 | dasatinib 0.021 | [2] 0.004 | [3] 0.086 | quisinostat 0.081 | tipifarnib 0.029 | [4] -0.038 | [5] 0.012 | [6] -0.027 | [7] 0.03 | silmitasertib -0.002 | [8] -0.043 | entospletinib 0.033

VPS53 isoform 4 (UniProt Q5VIR6)
inactive: nilotinib -0.013 | [1] -0.015 | dasatinib -0.063 | [2] -0.004 | [3] 0.026 | quisinostat 0.003 | tipifarnib -0.019 | [4] 0.005 | [5] 0.006 | [6] -0.005 | [7] -0.014 | vorinostat -0.156 | silmitasertib 0.021 | [8] -0.021 | entospletinib -0.013

From the supplement of paper PMC10849652
